4 sequences from US20030199022 can be followed below.

By UniProt entry, the sequences of proteins in these tests, tags left out.
UniProt P03372, whole entry G400V: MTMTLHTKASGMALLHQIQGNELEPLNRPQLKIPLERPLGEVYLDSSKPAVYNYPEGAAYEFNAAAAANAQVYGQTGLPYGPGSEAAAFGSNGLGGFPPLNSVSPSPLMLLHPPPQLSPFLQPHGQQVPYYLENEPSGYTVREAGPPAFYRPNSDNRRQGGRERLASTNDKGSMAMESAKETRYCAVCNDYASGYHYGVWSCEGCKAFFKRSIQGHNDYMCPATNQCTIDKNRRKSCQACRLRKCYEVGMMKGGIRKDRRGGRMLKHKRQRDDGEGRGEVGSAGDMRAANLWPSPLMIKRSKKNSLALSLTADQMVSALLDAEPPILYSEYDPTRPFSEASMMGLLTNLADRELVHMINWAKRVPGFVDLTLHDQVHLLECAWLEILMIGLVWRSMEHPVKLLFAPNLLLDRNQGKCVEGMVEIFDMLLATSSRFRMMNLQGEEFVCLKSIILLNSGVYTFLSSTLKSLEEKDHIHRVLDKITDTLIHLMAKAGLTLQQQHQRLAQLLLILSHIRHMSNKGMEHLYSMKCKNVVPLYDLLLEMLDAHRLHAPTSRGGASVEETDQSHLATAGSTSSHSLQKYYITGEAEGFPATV
UniProt P03372, whole entry G204S/Q214G/D218Y/G400V: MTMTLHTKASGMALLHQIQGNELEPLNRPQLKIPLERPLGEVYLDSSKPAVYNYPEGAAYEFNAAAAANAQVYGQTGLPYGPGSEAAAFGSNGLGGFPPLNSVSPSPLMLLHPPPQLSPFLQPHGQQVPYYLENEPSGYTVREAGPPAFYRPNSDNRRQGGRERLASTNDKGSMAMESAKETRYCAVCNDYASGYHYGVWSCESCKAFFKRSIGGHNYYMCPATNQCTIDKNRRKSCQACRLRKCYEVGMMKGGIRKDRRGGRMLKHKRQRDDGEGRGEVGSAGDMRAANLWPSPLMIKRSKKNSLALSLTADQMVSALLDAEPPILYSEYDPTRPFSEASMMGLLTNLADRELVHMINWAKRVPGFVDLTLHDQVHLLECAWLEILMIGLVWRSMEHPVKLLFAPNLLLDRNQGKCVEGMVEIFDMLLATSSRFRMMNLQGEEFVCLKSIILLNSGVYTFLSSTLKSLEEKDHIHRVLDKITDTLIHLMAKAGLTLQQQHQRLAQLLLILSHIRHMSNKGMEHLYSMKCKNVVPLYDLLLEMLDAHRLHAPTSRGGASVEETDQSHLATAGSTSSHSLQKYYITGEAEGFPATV
UniProt P03372, whole entry E203W/Q214A/G215R/G400V: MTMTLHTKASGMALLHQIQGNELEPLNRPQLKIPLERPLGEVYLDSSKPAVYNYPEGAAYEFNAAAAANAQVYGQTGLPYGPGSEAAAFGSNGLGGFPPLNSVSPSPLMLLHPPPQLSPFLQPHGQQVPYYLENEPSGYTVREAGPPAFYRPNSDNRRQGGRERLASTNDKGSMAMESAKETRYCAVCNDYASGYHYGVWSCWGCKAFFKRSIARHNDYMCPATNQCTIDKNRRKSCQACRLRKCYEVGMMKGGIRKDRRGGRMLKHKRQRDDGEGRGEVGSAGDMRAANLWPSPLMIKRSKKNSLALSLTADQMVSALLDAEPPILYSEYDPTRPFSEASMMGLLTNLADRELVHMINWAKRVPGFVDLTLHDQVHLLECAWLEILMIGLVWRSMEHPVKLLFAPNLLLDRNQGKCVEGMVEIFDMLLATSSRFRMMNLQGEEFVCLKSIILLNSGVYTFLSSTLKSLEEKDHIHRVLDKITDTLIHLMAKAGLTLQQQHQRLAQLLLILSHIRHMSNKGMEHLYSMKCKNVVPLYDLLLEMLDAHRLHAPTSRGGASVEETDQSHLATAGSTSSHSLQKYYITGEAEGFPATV
UniProt P03372, whole entry E203W/G204S/Q214A/H216G/G400V: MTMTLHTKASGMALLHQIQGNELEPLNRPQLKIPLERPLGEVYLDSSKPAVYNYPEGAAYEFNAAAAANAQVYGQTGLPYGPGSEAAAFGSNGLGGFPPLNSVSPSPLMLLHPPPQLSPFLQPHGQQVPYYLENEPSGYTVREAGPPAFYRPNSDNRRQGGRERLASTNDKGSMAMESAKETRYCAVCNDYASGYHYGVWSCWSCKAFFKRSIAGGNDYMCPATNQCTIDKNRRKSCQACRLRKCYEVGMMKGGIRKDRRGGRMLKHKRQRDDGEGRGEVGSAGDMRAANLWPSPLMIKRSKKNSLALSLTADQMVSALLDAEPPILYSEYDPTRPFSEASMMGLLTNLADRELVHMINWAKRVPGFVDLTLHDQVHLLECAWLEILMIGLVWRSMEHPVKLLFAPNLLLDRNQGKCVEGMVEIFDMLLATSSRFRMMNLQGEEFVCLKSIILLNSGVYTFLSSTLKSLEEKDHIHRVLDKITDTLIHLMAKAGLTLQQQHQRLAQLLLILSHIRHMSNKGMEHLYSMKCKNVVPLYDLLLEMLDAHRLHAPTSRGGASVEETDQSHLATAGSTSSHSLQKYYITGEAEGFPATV
UniProt P03372, whole entry E203W/Q214N/G215R/D218S/G400V: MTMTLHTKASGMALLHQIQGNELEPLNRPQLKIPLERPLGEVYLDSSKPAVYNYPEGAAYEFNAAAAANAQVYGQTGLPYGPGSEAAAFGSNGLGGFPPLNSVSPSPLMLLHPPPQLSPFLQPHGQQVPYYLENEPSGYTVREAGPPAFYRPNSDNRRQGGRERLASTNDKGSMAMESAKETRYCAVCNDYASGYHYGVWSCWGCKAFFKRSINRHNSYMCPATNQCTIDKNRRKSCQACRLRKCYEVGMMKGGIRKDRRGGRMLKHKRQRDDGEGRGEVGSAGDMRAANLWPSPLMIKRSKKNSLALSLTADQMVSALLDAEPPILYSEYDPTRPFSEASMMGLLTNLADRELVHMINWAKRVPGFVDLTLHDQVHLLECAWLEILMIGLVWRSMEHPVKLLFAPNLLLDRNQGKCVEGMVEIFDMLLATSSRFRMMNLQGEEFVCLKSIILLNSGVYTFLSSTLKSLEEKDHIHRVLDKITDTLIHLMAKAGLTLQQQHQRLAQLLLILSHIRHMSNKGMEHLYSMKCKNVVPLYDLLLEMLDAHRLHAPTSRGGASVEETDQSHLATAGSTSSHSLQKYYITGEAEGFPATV
UniProt P03372, whole entry E203W/Q214A/H216G/G400V: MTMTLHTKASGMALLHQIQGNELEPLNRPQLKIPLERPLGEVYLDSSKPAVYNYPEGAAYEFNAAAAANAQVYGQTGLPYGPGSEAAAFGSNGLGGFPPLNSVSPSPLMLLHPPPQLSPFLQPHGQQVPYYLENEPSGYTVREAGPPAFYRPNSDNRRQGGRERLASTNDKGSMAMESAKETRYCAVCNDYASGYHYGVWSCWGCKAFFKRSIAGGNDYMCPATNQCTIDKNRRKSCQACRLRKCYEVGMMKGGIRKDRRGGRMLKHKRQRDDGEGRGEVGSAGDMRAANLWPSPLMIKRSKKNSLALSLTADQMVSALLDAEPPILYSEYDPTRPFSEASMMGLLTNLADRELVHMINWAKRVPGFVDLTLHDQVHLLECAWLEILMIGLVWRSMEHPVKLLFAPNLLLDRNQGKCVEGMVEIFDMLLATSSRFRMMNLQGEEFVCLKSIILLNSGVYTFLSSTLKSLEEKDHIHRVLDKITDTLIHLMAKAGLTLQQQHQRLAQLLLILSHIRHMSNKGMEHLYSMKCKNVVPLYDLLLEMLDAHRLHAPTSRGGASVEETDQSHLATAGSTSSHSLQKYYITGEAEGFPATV
UniProt P03372, whole entry E203W/Q214A/G215R/H216G/G400V: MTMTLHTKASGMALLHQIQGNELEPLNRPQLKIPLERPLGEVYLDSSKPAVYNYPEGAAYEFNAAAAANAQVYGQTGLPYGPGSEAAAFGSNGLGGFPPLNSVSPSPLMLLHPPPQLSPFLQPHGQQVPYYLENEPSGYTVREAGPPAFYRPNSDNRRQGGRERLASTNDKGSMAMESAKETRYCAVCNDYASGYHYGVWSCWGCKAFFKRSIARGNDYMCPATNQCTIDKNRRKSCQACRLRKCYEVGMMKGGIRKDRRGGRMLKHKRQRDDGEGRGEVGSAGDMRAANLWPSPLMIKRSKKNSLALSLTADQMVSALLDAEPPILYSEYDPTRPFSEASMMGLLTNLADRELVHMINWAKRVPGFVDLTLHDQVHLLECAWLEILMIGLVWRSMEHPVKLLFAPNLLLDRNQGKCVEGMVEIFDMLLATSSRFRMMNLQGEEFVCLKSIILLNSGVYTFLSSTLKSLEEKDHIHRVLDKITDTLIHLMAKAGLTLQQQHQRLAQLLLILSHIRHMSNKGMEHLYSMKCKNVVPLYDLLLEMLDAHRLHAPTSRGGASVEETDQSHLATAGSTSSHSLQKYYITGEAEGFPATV
UniProt P03372, whole entry E203W/Q214V/G215R/H216P/N217T/G400V: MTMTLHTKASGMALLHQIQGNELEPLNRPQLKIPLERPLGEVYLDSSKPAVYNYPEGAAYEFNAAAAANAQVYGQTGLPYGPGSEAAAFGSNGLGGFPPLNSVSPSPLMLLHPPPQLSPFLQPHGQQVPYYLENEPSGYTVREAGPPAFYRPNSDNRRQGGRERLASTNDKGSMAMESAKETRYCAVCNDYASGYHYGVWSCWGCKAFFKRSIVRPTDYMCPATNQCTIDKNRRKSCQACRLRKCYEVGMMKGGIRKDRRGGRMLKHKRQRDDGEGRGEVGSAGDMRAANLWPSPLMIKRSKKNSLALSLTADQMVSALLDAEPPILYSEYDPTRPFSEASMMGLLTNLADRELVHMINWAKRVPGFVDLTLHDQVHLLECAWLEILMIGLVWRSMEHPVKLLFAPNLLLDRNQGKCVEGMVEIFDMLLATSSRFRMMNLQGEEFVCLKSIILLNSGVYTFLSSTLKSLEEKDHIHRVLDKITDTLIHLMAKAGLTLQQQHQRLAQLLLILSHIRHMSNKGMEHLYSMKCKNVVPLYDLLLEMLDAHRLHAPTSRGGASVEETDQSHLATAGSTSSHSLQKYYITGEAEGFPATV
UniProt P03372, whole entry E203W/G204S/A207G/I213K/G400V: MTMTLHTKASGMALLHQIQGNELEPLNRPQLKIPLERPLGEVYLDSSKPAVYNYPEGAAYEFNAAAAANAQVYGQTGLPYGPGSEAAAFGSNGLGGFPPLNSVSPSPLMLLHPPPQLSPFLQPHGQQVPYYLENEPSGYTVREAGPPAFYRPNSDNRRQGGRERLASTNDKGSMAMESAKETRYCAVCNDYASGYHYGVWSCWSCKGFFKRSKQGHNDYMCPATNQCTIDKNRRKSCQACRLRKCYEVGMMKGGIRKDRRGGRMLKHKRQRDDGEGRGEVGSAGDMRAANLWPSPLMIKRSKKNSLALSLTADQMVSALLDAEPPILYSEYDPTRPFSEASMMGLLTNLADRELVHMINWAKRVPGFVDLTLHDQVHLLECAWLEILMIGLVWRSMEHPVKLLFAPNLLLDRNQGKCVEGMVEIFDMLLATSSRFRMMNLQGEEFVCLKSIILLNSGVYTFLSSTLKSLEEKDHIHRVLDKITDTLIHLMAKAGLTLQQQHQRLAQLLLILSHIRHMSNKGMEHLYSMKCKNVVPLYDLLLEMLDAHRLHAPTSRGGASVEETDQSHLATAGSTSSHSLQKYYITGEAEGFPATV
UniProt P03372, whole entry E203W/G204S/A207G/Q214K/H216V/N217P/D218T/G400V: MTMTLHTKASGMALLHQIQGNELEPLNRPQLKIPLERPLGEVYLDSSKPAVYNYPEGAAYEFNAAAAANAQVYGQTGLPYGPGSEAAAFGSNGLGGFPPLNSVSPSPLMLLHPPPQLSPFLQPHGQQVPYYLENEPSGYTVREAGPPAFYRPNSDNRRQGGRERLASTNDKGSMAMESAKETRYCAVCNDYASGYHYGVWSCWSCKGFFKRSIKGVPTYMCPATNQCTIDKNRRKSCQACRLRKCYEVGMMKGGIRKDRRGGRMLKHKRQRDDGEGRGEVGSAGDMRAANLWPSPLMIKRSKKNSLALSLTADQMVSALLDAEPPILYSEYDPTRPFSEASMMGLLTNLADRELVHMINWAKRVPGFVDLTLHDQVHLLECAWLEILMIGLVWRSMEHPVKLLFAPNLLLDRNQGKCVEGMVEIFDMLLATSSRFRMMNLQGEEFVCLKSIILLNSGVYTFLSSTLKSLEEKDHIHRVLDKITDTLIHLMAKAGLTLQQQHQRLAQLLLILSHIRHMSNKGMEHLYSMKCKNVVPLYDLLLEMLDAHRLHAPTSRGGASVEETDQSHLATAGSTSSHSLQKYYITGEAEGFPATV
UniProt P03372, whole entry Q214A/G215R/H216R/N217L/G400V: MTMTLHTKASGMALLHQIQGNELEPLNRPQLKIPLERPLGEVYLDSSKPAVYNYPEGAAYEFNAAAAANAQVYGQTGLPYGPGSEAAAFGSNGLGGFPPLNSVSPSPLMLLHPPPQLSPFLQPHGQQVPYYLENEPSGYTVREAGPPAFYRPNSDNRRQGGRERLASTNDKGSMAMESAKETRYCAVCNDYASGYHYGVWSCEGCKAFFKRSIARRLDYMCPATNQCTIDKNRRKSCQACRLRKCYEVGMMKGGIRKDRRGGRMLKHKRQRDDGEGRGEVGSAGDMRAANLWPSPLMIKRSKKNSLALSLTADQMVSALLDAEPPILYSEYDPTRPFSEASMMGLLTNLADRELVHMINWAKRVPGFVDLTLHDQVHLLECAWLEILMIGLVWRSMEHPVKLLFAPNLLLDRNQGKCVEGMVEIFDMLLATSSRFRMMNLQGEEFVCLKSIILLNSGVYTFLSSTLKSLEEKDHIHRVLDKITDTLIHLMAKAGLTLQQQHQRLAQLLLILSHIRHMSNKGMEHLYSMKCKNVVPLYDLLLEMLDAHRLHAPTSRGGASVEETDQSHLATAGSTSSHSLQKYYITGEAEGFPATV

Series [1] has as its target ERα wild type (in cell) (Homo sapiens) (UniProt P03372). Put plainly: activity in cells. The note with it: HepG2, little or no transactivation; protein in cells.
In series [2] the target is ER15.3 G204S,Q214G,D218Y (Homo sapiens) (UniProt P03372). Put plainly: EMSA. The note with it: little or no binding, protein in a lysate after overexpression, label: labeled.
The target in series [3] is ER2 E203W,Q214A,G215R (Homo sapiens) (UniProt P03372). Put plainly: EMSA. The note with it: protein in a lysate after overexpression, label: labeled.
In series [4] the target is ER2.1 E203W,G204S,Q214A,H216G (Homo sapiens) (UniProt P03372). As to the kind of experiment: EMSA. The note with it: little or no binding, protein in a lysate after overexpression, label: labeled.
Series [5] addresses ER3.1 E203W,Q214N,G215R,D218S (Homo sapiens) (UniProt P03372). As to the kind of experiment: EMSA. The note with it: protein in a lysate after overexpression, label: labeled.
The target of series [6] is ER3M E203W,Q214A,H216G (Homo sapiens) (UniProt P03372). Put plainly: EMSA. The note with it: protein in a lysate after overexpression, label: labeled.
For series [7], the target named is ER4 E203W,Q214A,G215R,H216G (Homo sapiens) (UniProt P03372). Put plainly: EMSA. The note with it: protein in a lysate after overexpression, label: labeled.
The target in series [8] is ER4.3 E203W,Q214V,G215R,H216P,N217T (Homo sapiens) (UniProt P03372). Put plainly: EMSA. The note with it: protein in a lysate after overexpression, label: labeled.
Series [9] addresses ER50.1 E203W,G204S,A207G,I213K (Homo sapiens) (UniProt P03372). Put plainly: EMSA. The note with it: little or no binding, protein in a lysate after overexpression, label: labeled.
Series [10] addresses ER57.1 E203W,G204S,A207G,Q214K,H216V,N217P,D218T (Homo sapiens) (UniProt P03372). Put plainly: EMSA. The note with it: little or no binding, protein in a lysate after overexpression, label: labeled.
Series [11] concerns the target ER6.2 Q214A,G215R,H216R,N217L (Homo sapiens) (UniProt P03372). As to the kind of experiment: EMSA. The note with it: protein in a lysate after overexpression, label: labeled.
The target in series [12] is ER7.2 G215R,N217P,D218R (Homo sapiens) (UniProt P03372). Put plainly: EMSA. The note with it: little or no binding, protein in a lysate after overexpression, label: labeled.
The target in series [13] is ERα wild type (hERα) (Homo sapiens) (UniProt P03372). As to the kind of experiment: EMSA. The note with it: best binder to cERE; estradiol-treated cells, 50 mM KCl, poly(dIdC); protein in a lysate after overexpression; protein details: CHO-S whole cell extract; label: labeled.

For some of these results: A negative result means that nothing was seen under these conditions. For some of these results: At least one result comes from cells or an extract, where the contact may be indirect. For some of these results: The comparison behind a weaker result is the experiment's own reference, which may not be listed here. For some of these results: For at least one entry, the source does not settle the construct or the ends of the probe.

For “AAGCTTGGGCCACTGTGGCCCATCAAGATATCGAGATGGGCCACTGTGGCCCATCGACTCTAGA (double strand) [ATL2/PAL]”, the “activity on this sequence” value in series [1] was “not active”.

As to “AGCTTCTCTATTAGGTCACTGTGACCTTCATCTGAAGCT (double strand) [cERE probe]”, the binding result in series [2] was “no binding”; in series [3] (range for mutants) it was “binds more weakly”; in [4], “no binding”; in series [5] (range for mutants), “binds more weakly”; in [6] (range for mutants), “binds more weakly”; in series [7] (range for mutants) it was “binds more weakly”. The binding result in series [8] (range for mutants) is given as “binds more weakly”; in series [9], “no binding”; in series [10] it was “no binding”; in series [11] (range for mutants) it was “binds more weakly”; in [12], “no binding”; in series [13], “binds”.

Consider “AGCTTCTCTATTGGGCCACTGTGGCCCTCATCTGAAGCT (double strand) [pS2 PAL probe]”, for which the binding result in series [11] (negligible binding, variant of pS2 ERE probe) is “no binding”.

Turning to “AGCTTCTCTATTGGGCCACTGTGACCTTCATCTGAAGCT (double strand) [pS2 ERE probe]”, the binding result in [2] (variant of cERE probe) is on record as “no binding”; in series [3] (variant of cERE probe) it was “binds”; in series [4] (variant of cERE probe) it was “no binding”; in [5] (variant of cERE probe), “binds”; in [6] (variant of cERE probe) it was “binds”; in [7] (variant of cERE probe) it was “binds”. The binding result was “binds” in [8] (variant of cERE probe); “no binding” in series [9] (variant of cERE probe); “no binding” in [10] (variant of cERE probe); “binds more weakly” in series [11] (dramatic decrease versus cERE, variant of cERE probe); “no binding” in series [12] (variant of cERE probe).
